At least one structure is not confirmed: it was looked up by name or label, or the drawing left a doubt.
Tested on: Hepatoma cell Hep3B (high expression of FGFR4 and FGF19)
Assay: Hepatoma cell proliferation inhibition experiment (MTS method)
Assay type: cell-based
Text: In this experiment, the MTS method was used to test the inhibitory effect of the compounds on the proliferation of Hepatoma cell Hep3B (high expression of FGFR4 and FGF19), and the half inhibitory concentration IC50 of the compounds to Hep3B was obtained. The Hep3B cell line was purchased from ATCC, and the complete culture medium of the Hep3B cell line was MEM+10% FBS+1% PS. MEM cell culture medium, fetal bovine serum, and trypsin were purchased from Gibco, cell culture flasks were purchased from Greiner, and disposable Cell Counting Plate and Taittinger Blue Solution were purchased from Bio-Rad.
(1) 100 μl Hepatoma cell Hep3B suspension was seeded in a 96-well cell culture plate, and the density of each well was 2.0×10^4 cells/ml.
(3) A mixture of MTS (3-(4,5-dimethylthiazol-2-yl)-5-(3-carboxymethoxyphenyl)-2-(4-sulfophenyl)-2H-tetrazolium)/PMS (phenazine methosulfate) was added into each well for coloration, and MTS/PMS in the mixture was at a ratio of 20:1 (ml:ml). 30 μl of the mixture was added into each well of the culture plate above mentioned in step (2), then the culture plate was incubated for 3 h in the incubator.
(5) The inhibition rate was calculated by the […];
(6) According to the inhibition rate of the different concentrations, the IC50 values of the compounds were obtained by curve fitting.

Structure (SMILES): CSCCNc1cc(NC(=O)N2CCCc3cc(CN4CCN(C)CC4=O)c(C=O)nc32)ncc1C#N [Compound 1]
- inhibitory effect on Hepatoma cell Hep3B compared with the reference compound: better inhibitory effect
